Results are given in words; binding and its absence hold for the method and conditions named. Some binding calls cover weakened binding; strength is not graded here.
Molecular target: collagen I (coating of a 96-well collagen I coated plate) (UniProt P02454)
Assay: ELISA; collagen I coated 96-well plate incubated with vWF (0 to 8 ug/ml) in HBSS for four hours, washed, bound vWF detected with peroxidase-conjugated rabbit polyclonal anti-human vWF antibody; OD 450 nm, relative units; both purified

Amino acid sequences for entries named in this document (tags omitted). A change or cut given only in a name is not applied to a line headed by its entry. Residues count along the entry.
UniProt P02454: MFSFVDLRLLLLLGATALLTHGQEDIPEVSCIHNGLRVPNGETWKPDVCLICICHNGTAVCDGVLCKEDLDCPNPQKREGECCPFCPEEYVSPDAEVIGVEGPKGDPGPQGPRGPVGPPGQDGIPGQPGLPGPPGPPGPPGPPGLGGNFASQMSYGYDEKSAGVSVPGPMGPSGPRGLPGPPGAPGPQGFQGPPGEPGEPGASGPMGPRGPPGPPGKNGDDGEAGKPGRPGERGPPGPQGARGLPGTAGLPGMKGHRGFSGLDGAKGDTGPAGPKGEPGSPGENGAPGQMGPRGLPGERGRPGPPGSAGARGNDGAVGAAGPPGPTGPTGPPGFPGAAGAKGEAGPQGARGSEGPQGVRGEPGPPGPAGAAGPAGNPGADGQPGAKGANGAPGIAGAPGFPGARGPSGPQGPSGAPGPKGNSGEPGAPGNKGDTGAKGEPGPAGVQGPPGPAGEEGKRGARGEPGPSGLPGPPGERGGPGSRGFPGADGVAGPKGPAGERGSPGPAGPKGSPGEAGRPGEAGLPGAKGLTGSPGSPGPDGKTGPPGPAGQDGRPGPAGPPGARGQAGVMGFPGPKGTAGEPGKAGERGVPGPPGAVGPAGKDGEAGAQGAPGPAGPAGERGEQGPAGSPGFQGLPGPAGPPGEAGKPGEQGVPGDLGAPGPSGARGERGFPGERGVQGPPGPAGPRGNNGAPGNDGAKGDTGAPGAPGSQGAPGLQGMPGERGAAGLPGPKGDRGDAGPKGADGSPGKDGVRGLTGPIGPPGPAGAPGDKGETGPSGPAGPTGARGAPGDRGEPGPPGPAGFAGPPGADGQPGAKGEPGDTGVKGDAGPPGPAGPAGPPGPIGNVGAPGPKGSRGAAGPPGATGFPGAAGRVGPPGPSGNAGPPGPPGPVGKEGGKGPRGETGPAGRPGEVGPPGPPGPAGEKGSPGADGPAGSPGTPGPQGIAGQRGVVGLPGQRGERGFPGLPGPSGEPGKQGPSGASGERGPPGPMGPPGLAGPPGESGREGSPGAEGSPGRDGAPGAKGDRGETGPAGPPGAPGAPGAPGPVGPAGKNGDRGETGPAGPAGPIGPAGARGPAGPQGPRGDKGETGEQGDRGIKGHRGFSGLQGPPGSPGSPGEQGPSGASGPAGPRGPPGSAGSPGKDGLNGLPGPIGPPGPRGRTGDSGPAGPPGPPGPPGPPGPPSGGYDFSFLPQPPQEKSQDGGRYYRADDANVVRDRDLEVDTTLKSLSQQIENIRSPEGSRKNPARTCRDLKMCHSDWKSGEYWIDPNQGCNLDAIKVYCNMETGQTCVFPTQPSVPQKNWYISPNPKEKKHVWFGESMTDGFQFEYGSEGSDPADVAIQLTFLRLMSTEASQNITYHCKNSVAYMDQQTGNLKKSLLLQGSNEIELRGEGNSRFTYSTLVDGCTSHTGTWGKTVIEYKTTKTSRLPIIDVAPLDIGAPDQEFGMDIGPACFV
UniProt P04275, residues 764-2813: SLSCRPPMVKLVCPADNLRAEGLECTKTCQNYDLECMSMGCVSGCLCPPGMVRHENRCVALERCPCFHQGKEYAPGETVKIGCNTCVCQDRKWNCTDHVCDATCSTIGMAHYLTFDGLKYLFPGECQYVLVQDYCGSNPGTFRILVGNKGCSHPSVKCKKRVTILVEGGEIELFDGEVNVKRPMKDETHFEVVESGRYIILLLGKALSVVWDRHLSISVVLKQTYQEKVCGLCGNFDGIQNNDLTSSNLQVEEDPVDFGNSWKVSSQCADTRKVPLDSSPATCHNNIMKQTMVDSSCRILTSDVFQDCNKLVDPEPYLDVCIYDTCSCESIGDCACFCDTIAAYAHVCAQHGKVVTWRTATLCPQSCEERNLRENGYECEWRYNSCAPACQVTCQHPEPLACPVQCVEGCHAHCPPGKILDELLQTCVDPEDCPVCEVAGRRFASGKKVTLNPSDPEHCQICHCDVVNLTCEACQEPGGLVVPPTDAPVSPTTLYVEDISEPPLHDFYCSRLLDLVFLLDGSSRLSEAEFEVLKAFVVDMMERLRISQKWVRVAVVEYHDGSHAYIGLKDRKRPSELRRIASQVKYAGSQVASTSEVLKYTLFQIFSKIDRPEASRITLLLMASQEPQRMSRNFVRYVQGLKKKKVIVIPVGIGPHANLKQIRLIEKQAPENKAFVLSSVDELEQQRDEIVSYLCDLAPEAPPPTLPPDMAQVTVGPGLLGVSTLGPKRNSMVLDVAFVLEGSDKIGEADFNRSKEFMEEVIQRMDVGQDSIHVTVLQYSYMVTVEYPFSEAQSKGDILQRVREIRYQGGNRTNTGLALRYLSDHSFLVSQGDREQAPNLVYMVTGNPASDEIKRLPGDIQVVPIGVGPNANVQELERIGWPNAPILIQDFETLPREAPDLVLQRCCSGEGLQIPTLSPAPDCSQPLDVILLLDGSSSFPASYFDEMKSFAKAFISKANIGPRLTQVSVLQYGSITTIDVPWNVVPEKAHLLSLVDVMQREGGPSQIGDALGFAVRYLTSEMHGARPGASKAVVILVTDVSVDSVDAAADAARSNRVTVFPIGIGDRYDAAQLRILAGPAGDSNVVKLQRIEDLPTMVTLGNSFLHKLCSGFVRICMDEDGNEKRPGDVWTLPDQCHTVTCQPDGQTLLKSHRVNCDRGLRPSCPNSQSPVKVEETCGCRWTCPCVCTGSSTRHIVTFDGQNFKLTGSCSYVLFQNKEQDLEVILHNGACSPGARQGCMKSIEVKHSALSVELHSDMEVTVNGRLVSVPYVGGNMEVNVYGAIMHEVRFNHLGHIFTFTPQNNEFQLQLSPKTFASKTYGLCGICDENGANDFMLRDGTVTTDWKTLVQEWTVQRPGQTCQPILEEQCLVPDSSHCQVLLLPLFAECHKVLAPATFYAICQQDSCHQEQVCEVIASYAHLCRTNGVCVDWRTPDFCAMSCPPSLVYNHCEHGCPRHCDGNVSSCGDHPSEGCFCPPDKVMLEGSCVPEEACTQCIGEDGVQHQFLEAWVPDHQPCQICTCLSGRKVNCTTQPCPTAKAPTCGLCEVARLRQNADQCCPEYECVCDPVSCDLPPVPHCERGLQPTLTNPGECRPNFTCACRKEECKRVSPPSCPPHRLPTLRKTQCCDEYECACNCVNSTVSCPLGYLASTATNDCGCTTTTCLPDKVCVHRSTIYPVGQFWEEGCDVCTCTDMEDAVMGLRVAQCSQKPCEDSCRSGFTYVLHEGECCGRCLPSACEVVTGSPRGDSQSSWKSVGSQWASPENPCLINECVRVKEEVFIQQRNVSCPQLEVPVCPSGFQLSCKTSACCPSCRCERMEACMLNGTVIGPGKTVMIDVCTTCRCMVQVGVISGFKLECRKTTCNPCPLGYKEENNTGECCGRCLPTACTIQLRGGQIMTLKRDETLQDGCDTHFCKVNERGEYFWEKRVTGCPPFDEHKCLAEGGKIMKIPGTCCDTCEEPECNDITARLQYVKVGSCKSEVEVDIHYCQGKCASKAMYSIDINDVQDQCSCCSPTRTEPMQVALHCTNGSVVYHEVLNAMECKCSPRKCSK

binding: binds
Substance: Human vWF-Factor VIII free (from UniProt P04275 764-2813)

From article PMC3025437
